Data from PMC11251733.
These are yes or no findings as the source states them, for the method shown. Binding seen in cells or lysates may run through a third protein. Here binding means that the protein was enriched with, or labelled near, the bait; the list need not be complete. Tags and fused reporters may be left off the sequences shown.

By UniProt entry, the sequences of proteins in these tests, tags left out.
UniProt Q9ULT8: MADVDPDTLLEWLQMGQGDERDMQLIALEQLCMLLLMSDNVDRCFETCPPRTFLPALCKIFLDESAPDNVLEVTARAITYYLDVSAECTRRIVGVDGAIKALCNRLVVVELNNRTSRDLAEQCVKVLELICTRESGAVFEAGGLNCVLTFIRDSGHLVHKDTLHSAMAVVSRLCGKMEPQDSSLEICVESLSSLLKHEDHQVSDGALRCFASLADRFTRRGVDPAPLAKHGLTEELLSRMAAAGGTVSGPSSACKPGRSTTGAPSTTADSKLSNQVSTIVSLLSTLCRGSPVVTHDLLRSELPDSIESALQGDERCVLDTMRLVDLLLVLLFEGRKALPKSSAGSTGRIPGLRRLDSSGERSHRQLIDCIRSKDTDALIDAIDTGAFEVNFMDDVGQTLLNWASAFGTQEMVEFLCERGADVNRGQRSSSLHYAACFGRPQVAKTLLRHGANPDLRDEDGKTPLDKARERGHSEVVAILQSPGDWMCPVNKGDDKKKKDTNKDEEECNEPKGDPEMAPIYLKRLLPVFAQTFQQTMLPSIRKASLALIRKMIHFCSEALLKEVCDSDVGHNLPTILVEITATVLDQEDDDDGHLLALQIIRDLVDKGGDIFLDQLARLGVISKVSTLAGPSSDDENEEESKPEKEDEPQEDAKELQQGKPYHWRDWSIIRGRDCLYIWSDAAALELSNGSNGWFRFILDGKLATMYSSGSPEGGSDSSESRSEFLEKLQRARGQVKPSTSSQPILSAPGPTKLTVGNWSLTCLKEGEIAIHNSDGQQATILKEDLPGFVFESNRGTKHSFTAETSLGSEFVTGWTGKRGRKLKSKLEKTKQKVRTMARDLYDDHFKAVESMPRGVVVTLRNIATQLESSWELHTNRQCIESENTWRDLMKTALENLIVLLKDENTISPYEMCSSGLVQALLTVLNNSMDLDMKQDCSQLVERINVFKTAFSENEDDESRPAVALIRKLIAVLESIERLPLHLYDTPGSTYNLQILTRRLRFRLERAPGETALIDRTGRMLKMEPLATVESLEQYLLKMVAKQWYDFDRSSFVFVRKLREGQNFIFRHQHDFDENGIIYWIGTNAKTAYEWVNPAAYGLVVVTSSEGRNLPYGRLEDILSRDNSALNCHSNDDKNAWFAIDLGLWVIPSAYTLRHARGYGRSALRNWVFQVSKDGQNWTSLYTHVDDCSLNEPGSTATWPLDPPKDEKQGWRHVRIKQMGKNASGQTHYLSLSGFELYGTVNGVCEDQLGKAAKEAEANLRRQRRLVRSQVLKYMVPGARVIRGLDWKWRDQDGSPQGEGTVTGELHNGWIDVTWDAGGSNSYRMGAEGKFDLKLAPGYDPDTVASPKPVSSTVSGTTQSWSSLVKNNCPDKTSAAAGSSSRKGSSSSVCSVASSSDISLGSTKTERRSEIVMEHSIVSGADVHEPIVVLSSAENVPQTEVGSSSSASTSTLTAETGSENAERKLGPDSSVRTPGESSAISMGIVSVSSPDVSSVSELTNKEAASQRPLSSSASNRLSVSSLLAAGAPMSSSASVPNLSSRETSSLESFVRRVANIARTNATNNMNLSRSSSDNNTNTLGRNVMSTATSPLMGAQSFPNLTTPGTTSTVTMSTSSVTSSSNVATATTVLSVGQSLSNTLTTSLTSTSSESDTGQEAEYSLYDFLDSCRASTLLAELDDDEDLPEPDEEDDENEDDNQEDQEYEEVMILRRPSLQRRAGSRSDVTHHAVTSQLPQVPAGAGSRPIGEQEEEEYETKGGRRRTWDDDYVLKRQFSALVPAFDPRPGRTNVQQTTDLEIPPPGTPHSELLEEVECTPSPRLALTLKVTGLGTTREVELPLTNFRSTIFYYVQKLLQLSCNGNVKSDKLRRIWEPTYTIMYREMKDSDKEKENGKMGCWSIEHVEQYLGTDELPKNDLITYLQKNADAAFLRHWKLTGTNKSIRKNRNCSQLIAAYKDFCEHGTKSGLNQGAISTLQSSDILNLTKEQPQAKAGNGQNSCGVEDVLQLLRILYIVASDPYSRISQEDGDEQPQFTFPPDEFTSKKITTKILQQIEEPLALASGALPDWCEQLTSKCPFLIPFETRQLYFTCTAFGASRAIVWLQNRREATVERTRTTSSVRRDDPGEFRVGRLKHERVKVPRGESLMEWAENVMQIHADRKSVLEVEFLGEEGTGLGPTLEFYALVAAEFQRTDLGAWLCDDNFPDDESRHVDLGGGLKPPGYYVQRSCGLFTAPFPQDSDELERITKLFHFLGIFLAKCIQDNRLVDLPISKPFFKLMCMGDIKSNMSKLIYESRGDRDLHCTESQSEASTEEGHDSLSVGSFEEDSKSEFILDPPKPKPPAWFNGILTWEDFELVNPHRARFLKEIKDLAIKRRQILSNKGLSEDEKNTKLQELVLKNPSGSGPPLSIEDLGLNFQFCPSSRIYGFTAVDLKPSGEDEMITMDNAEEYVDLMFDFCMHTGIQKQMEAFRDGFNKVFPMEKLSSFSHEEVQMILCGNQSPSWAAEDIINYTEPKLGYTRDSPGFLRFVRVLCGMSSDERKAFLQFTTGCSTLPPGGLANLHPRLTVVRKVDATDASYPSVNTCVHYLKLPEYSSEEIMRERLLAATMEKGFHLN

Molecular target: T1, exosomal GP73-c-FLAG fusion protein (UniProt Q8NBJ4)
T1 sequence: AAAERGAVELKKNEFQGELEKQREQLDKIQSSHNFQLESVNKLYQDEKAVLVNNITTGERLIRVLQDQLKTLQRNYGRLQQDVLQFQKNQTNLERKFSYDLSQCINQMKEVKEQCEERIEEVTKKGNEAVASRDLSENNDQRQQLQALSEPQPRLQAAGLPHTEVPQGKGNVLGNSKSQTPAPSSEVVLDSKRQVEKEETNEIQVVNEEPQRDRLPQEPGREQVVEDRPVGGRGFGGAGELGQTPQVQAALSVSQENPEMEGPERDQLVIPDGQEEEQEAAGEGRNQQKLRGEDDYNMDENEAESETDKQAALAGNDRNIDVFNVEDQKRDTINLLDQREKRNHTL
Assay: affinity purification with mass spectrometry; HUVECs treated for 24 h with exosomes of HepG2 cells expressing GP73-c-FLAG (or FLAG alone); anti-FLAG M2 gel, SDS-PAGE, LC-MS/MS

binding: binds
Substance: HECTD1 (from UniProt Q9ULT8 1-2610) (enzyme)
